## Results from one PubChem assay

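A panel of named gynecologic cancer cell lines (ovarian and cervical) is scored for viability by ATP-dependent luminescence after 48 hours of compound exposure.
Each compound was tested at five concentrations, including 0.46, 2.3 and 57.5 µM as the top dose.
The number is the fitted AC50 potency, and a lower value means stronger cell killing.
Calls follow an activity score built from curve class and fitted AC50: 40 to 100 is active, 1 to 39 is inconclusive, and 0 is inactive.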

Values are in nM.
Every entry below has the call inconclusive.
Only part of the assay is shown, chiefly results filed as inconclusive.
A potency from a partial, single-point or poor curve is only a rough figure.
The first word of each remark tells which way the curve ran; it can be opposite to the aim of the assay.
Activity scores are not listed here.

Result for Cc1cccc(NC(=O)c2ccc(C(F)(F)F)cc2C(=O)O)n1 [CAOV3] was potency 1000 nM (rising, partial curve, poor fit).
Result for Cc1cccc(NC(=O)c2ccc(C(F)(F)F)cc2C(=O)O)n1 [Es-2] was potency 35481 nM (cytotoxic, single point).
Result for Cc1cccc(NC(=O)c2ccc(C(F)(F)F)cc2C(=O)O)n1 [HeLa] was potency 31622 nM (cytotoxic, single point).
Result for Cc1cccc(NC(=O)c2ccc(C(F)(F)F)cc2C(=O)O)n1 [C33A] was potency 5623 nM (cytotoxic, single point).
Result for Cc1cccc(NC(=O)c2ccc(C(F)(F)F)cc2C(=O)O)n1 [JEG-3] was potency 22387 nM (cytotoxic, partial curve).
Result for CC(=O)N(O)CCCCCNC(=O)CCC(=O)N(O)CCCCCNC(=O)CCC(=O)N(O)CCCCCN [C33A] was potency 19952 nM (cytotoxic, partial curve, poor fit).
Result for CC(=O)N(O)CCCCCNC(=O)CCC(=O)N(O)CCCCCNC(=O)CCC(=O)N(O)CCCCCN [Es-2] was potency 10000 nM (cytotoxic, partial curve).
Result for CC(=O)N(O)CCCCCNC(=O)CCC(=O)N(O)CCCCCNC(=O)CCC(=O)N(O)CCCCCN [CAOV3] was potency 25118 nM (cytotoxic, partial curve, poor fit).
Result for CO/N=C1\CN(c2nc3c(cc2F)c(=O)c(C(=O)O)cn3C2CC2)CC1CN (centres unmarked) [C33A] was potency 22387 nM (cytotoxic, partial curve, poor fit).
Result for CO/N=C1\CN(c2nc3c(cc2F)c(=O)c(C(=O)O)cn3C2CC2)CC1CN (centres unmarked) [PA-1] was potency 28183 nM (cytotoxic, single point).
Result for C=CCOC(Cn1ccnc1)c1ccc(Cl)cc1Cl (centres unmarked) [OV90] was potency 22387 nM (cytotoxic, partial curve, poor fit).
Result for C=CCOC(Cn1ccnc1)c1ccc(Cl)cc1Cl (centres unmarked) [HeLa] was potency 35481 nM (cytotoxic, single point).
Result for COC(C)(C)CCn1nc(Nc2c(C)cccc2C)c2cnc(Nc3ccc(OCCN4CCCC4)c(F)c3)nc21 [JEG-3] was potency 25118 nM (cytotoxic, single point).
Result for COC(C)(C)CCn1nc(Nc2c(C)cccc2C)c2cnc(Nc3ccc(OCCN4CCCC4)c(F)c3)nc21 [Hek293T; control line for the selectivity index] was potency 28183 nM (cytotoxic, single point).

2 of the entries, repeated:

- Cc1cccc(NC(=O)c2ccc(C(F)(F)F)cc2C(=O)O)n1 [HeLa] : potency 31622 nM (cytotoxic, single point)
- CC(=O)N(O)CCCCCNC(=O)CCC(=O)N(O)CCCCCNC(=O)CCC(=O)N(O)CCCCCN [C33A] : potency 19952 nM (cytotoxic, partial curve, poor fit)

Data taken from PubChem BioAssay AID1345084, deposited by NCATS (2018).